The other results are listed elsewhere or left out.

The assay deals with T1, OsSMF1 (Oryza sativa, UniProt Q6ZLB0 1-436).
T1 sequence: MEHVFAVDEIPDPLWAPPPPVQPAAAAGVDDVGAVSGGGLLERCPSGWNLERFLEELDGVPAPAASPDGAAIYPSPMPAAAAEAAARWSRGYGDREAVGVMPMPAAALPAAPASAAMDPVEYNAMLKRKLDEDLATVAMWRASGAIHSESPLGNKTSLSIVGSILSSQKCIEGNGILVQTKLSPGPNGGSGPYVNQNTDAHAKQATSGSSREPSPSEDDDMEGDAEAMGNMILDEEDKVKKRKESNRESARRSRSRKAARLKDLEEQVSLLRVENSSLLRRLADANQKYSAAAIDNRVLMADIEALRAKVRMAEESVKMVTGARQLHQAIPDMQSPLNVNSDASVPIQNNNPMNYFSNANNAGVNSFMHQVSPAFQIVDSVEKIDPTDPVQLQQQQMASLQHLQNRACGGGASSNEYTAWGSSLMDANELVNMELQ
Put plainly: protein-binding microarray (RPBM); PBS, 2% BSA, 51.3 ng/ul salmon testes DNA, 50 uM zinc acetate, 200 nM TF, 25 C, 1 h; high values mean tight binding. The settings on record: protein: recombinant; tags: N-terminal polyhistidine and DsRed monomer fusion (pET32a); chain copies: 2; label: CyDye5-dUTP incorporated in the synthesized complementary strand; 3' TTTTT single-stranded linker to array surface; dsDNA, one strand shown. The method in brief:
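An Axon 4000B scanner gave the binding signal as per-feature fluorescence intensity in arbitrary units. This followed washing of a custom Agilent array that had been incubated for 1 h at 25 °C with 200 nM protein in PBS, 2% BSA, salmon testes DNA and 50 µM zinc acetate. The proteins were transcription factors fused at the N-terminus to polyhistidine and DsRed, expressed in E. coli BL21-CodonPlus and purified on Ni–NTA.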
“CACTTGATGAGCTCCTCTCCATGTCCTCAAACGTACTGAACGGAGTCACCTAGTGCAG”: the binding signal was 25100 fluorescence intensity (a.u.).
Consider “TGCCGGATTATGTAAGGAAAATCTTGTCAGCACTGCTCCTCGGAGTCACCTAGTGCAG”, for which the binding signal was 3510 fluorescence intensity (a.u.).
“TGACATTCTGGTCACTGTCAGAATCTCTCGGAAAATGAGGCGGAGTCACCTAGTGCAG”: the binding signal is 4080 fluorescence intensity (a.u.).
On to “TTGTGCCGCACTAGTGGATATGTTTTCGGTAGGAATTTTACGGAGTCACCTAGTGCAG”, for which the binding signal is 3200 fluorescence intensity (a.u.).
With “ATGTTGCTCATCGTTACACGTGCTGCCTTTATATGCTATCCGGAGTCACCTAGTGCAG”, the binding signal is 5310 fluorescence intensity (a.u.).
As for “TTTGCACGAAAGGCAGCCTGGGCAGCATCTAGCATGGGCGCGGAGTCACCTAGTGCAG”, the binding signal is 3560 fluorescence intensity (a.u.).
“CAACCACAGTCGACGAACGCCAAGCACGCCGTGTCGCTCTCGGAGTCACCTAGTGCAG”: the binding signal is 22400 fluorescence intensity (a.u.).
As to “AAAGCCAGTACACTCGCTGACTCGCCTGACCCTGTCAAACCGGAGTCACCTAGTGCAG”, the binding signal was 3380 fluorescence intensity (a.u.).
For “TACTTTCCTTATATATAACGTCTGTAATACGTTACGCCTTCGGAGTCACCTAGTGCAG”, the binding signal was 3250 fluorescence intensity (a.u.).
As for “GCCACACCCTGTCAATGACATGTGGGCCCTCATGTGTCTACGGAGTCACCTAGTGCAG”, the binding signal was 4020 fluorescence intensity (a.u.).
With “GGGATCTTTAGGGAGCTCCACCATCACGTGACCCCAAGAGCGGAGTCACCTAGTGCAG”, the binding signal is 3480 fluorescence intensity (a.u.).
As to “CTGCACTGCAAGTGACGTACACACACTATAGGACCTCGCTCGGAGTCACCTAGTGCAG”, the binding signal is 4000 fluorescence intensity (a.u.).
Take “AAGCTTGGTTTTGCGATGACTCACCTCTAGTTGGAGAAGACGGAGTCACCTAGTGCAG”: the binding signal is 3930 fluorescence intensity (a.u.).
For the sequence “AAATGCTACTACTTACTTGGGCATGGCTGCCATGCCACAACGGAGTCACCTAGTGCAG”, the binding signal was 35700 fluorescence intensity (a.u.).
As for “ACGTGGGTCCCACTTGCCACGTGAGCCAAAACCCGGGTATCGGAGTCACCTAGTGCAG”, the binding signal is 11200 fluorescence intensity (a.u.).
For the sequence “GAGGGACTTATTCCATCACCGTCACAATTGGGCCTCCATACGGAGTCACCTAGTGCAG”, the binding signal is 3920 fluorescence intensity (a.u.).
On to “TTGTCAAATCATGGCGTCATTAGGCTTAAAAGATTCGTCTCGGAGTCACCTAGTGCAG”, for which the binding signal was 4280 fluorescence intensity (a.u.).
Next, “AATCCGCCGAGGGACTTATTGTGACCGGTTTTGATTAGTTCGGAGTCACCTAGTGCAG”: 19600 fluorescence intensity (a.u.); “TGTTTATTTCTCAAGGGCTTATCAAATATATCAAACCCCTCGGAGTCACCTAGTGCAG”: 21400 fluorescence intensity (a.u.); “ATACGGAGTTACTCACAGGAACTTCTAGTTCATCTGTCCTCGGAGTCACCTAGTGCAG”: 22600 fluorescence intensity (a.u.).
On to “GCCTCGACCACGACGACGACCACGACGACAACGATACCACCGGAGTCACCTAGTGCAG”, for which the binding signal is 3280 fluorescence intensity (a.u.).
With “CGTTCCGCCGCCGCCGCCGTCGTCCAGGGCGAAGCTTGCGCGGAGTCACCTAGTGCAG”, the binding signal is 4570 fluorescence intensity (a.u.).
For “CTAGCGCATATTAGCCGTTGGTTGGTTTAGTATACGTACGCGGAGTCACCTAGTGCAG”, the binding signal was 3290 fluorescence intensity (a.u.).
“AGGTTGCCAAACCTTTAGTACCTAAGATGTGGCATGCCATCGGAGTCACCTAGTGCAG”: the binding signal was 3740 fluorescence intensity (a.u.).
Regarding “TTGGTTGTTTACATGCTTCTGCTGATGATGATGCAGTTCTCGGAGTCACCTAGTGCAG”, the binding signal is 3970 fluorescence intensity (a.u.).
On to “TGTTTATCTATTTTGTGTTGGTATTATTATTTCTTGTATACGGAGTCACCTAGTGCAG”, for which the binding signal was 25500 fluorescence intensity (a.u.).
Consider “CTCCTCTCCGATGAAGACCTGCCACCGGTCTGAACCATCTCGGAGTCACCTAGTGCAG”, for which the binding signal is 64300 fluorescence intensity (a.u.).
On to “GCTCATAGAGCTACACACTGATGACAAGACATAAGGGAAGCGGAGTCACCTAGTGCAG”, for which the binding signal is 4350 fluorescence intensity (a.u.).
Next, “CAGTGCTAACGGAGGTTAACCGGACGGCGATGGTAAATCGCGGAGTCACCTAGTGCAG”: 4520 fluorescence intensity (a.u.); “ATGCCGGCCCAATCTCACGAGAGTTTATTGGGATAGGATACGGAGTCACCTAGTGCAG”: 28300 fluorescence intensity (a.u.).
For “GCTGCTTCTCTTAATTCTTCACATACACGTATCGGTTAGTCGGAGTCACCTAGTGCAG”, the binding signal was 4250 fluorescence intensity (a.u.).
As to “CGGTGGCGCCGTCACCGCGTCCGTCTCCACCTCCGCTTCTCGGAGTCACCTAGTGCAG”, the binding signal was 3170 fluorescence intensity (a.u.).
As for “GAGTCTCCTCTCCTCCCTCCCTCCCTCCCTTCCCTTTGCCCGGAGTCACCTAGTGCAG”, the figure is 11300 fluorescence intensity (a.u.).
In the case of “AGCGCTACAACATTCATGCCTTGCCACCTTGGTGCAGGCTCGGAGTCACCTAGTGCAG”, the binding signal was 3350 fluorescence intensity (a.u.).
“CCTGGTTTTGCTTCCCCGCGACGTGCAGCAGTGGATGGAGCGGAGTCACCTAGTGCAG”: the binding signal was 26300 fluorescence intensity (a.u.).
Take “TGTAACAAATTAGATTATCCCATTTGTCTGACGTTGCCTGCGGAGTCACCTAGTGCAG”: the binding signal was 4820 fluorescence intensity (a.u.).
Next, “TCACCGGTCTCATCCCCGTCATATGCATCCTTATCTCCAACGGAGTCACCTAGTGCAG”: 4020 fluorescence intensity (a.u.).
Take “ATATATAGATTATTTTGACTTGAAATTGTGAAATTACTCTCGGAGTCACCTAGTGCAG”: the binding signal was 4300 fluorescence intensity (a.u.).
Take “GCCAAAGATTGCAAGATCGATCGCAAGGTAACGTACACGTCGGAGTCACCTAGTGCAG”: the binding signal was 3510 fluorescence intensity (a.u.).
For “TCCAGTTGTGCGTGGAGATGTTGGTGAAGAGCTTCCGCTGCGGAGTCACCTAGTGCAG”, the binding signal was 4270 fluorescence intensity (a.u.).
Next, “TGCAAATTGCGAGACGGATTTATTAAGCCTAGTTAATCCGCGGAGTCACCTAGTGCAG”: 39400 fluorescence intensity (a.u.).
As to “GCAAGCGGTCTCGCGTCATCATGCGACACTGTAACATCAACGGAGTCACCTAGTGCAG”, the binding signal was 5610 fluorescence intensity (a.u.).
